Test results taken from article PMC12539243.
Results are given in words; binding and its absence hold for the method and conditions named. In cells and extracts the contact can be indirect. Some results given as binding are weak or reduced against the parent protein; the word gives no strength. Tags and fused reporters may be left off the sequences shown.

B1: HA-tagged RAVER1 (protein, UniProt Q8IY67 1-606)
chain: MAADVSVTHRPPLSPKSGAEVEAGDAAERRAPEEELPPLDPEEIRKRLEHTERQFRNRRKILIRGLPGDVTNQEVHDLLSDYELKYCFVDKYKGTAFVTLLNGEQAEAAINAFHQSRLRERELSVQLQPTDALLCVANLPPSLTQQQFEELVRPFGSLERCFLVYSERTGQSKGYGFAEYMKKDSAARAKSDLLGKPLGPRTLYVHWTDAGQLTPALLHSRCLCVDRLPPGFNDVDALCRALSAVHSPTFCQLACGQDGQLKGFAVLEYETAEMAEEAQQQADGLSLGGSHLRVSFCAPGPPGRSMLAALIAAQATALNRGKGLLPEPNILQLLNNLGPSASLQLLLNPLLHGSAGGKQGLLGAPPAMPLLNGPALSTALLQLALQTQGQKKPGILGDSPLGALQPGAQPANPLLGELPAGGGLPPELPPRRGKPPPLLPSVLGPAGGDREALGLGPPAAQLTPPPAPVGLRGSGLRGPLSHFYSGSPTSYFTSGLQAGLKQSHLSKAIGSSPLGSGEGLLGLSPGPNGHSHLLKVRAGGGDMQGWEAPAPQRPLTRPALPSVSRPHWAARNAALPTCCPRPSPAQKAAMWASTPRASAATTRTPT
B2: HA-tagged RBM42 (protein, UniProt Q9BTD8 1-480)
chain: MAGAGPAPGLPGAGGPVVPGPGAGIPGKSGEERLKEMEAEMALFEQEVLGAPVPGIPTAVPAVPTVPTVPTVEAMQVPAAPVIRPIIATNTYQQVQQTLEARAAAAATVVPPMVGGPPFVGPVGFGPGDRSHLDSPEAREAMFLRRAAVAPQRAPILRPAFVPHVLQRADSALSSAAAGPRPMALRPPHQALVGPPLPGPPGPPMMLPPMARAPGPPLGSMAALRPPLEEPAAPRELGLGLGLGLKEKEEAVVAAAAGLEEASAAVAVGAGGAPAGPAVIGPSLPLALAMPLPEPEPLPLPLEVVRGLLPPLRIPELLSLRPRPRPPRPEPPPGLMALEVPEPLGEDKKKGKPEKLKRCIRTAAGSSWEDPSLLEWDADDFRIFCGDLGNEVNDDILARAFSRFPSFLKAKVIRDKRTGKTKGYGFVSFKDPSDYVRAMREMNGKYVGSRPIKLRKSMWKDRNLDVVRKKQKEKKKLGLR
B3: HA-tagged RBM19 (protein, UniProt Q9Y4C8 1-960)
chain: MSRLIVKNLPNGMKEERFRQLFAAFGTLTDCSLKFTKDGKFRKFGFIGFKSEEEAQKAQKHFNKSFIDTSRITVEFCKSFGDPAKPRAWSKHAQKPSQPKQPPKDSTTPEIKKDEKKKKVAGQLEKLKEDTEFQEFLSVHQRRAQAATWANDGLDAEPSKGKSKPASDYLNFDSDSGQESEEEGAGEDLEEEASLEPKAAVQKELSDMDYLKSKMVKAGSSSSSEEEESEDEAVHCDEGSEAEEEDSSATPVLQERDSKGAGQEQGMPAGKKRPPEARAETEKPANQKEPTTCHTVKLRGAPFNVTEKNVMEFLAPLKPVAIRIVRNAHGNKTGYIFVDFSNEEEVKQALKCNREYMGGRYIEVFREKNVPTTKGAPKNTTKSWQGRILGENEEEEDLAESGRLFVRNLPYTSTEEDLEKLFSKYGPLSELHYPIDSLTKKPKGFAFITFMFPEHAVKAYSEVDGQVFQGRMLHVLPSTIKKEASEDASALGSSSYKKKKEAQDKANSASSHNWNTLFMGPNAVADAIAQKYNATKSQVFDHETKGSVAVRVALGETQLVQEVRRFLIDNGVSLDSFSQAAAERSKTVILVKNLPAGTLAAQLQETFGHFGSLGRVLLPEGGITAIVEFLEPLEARKAFRHLAYSKFHHVPLYLEWAPVGVFSSTAPQKKKLQDTPSEPMEKDPAEPETVPDGETPEDENPTEEGADNSSAKMEEEEEEEEEEEESLPGCTLFIKNLNFDTTEEKLKEVFSKVGTVKSCSISKKKNKAGVLLSMGFGFVEYRKPEQAQKALKQLQGHVVDGHKLEVRISERATKPAVTLARKKQVPRKQTTSKILVRNIPFQAHSREIRELFSTFGELKTVRLPKKMTGTGTHRGFGFVDFLTKQDAKRAFNALCHSTHLYGRRLVLEWADSEVTLQALRRKTAAHFHEPPKKKRSVVLDEILEQLEGSDSDSEEQTLQL
B4: HA-tagged KNSTRN (protein, UniProt Q9Y448 1-316)
chain: MAAPEAPPLDRVFRTTWLSTECDSHPLPPSYRKFLFETQAADLAGGTTVAAGNLLNESEKDCGQDRRAPGVQPCRLVTMTSVVKTVYSLQPPSALSGGQPADTQTRATSKSLLPVRSKEVDVSKQLHSGGPENDVTKITKLRRENGQMKATDTATRRNVRKGYKPLSKQKSEEELKDKNQLLEAVNKQLHQKLTETQGELKDLTQKVELLEKFRDNCLAILESKGLDPALGSETLASRQESTTDHMDSMLLLETLQEELKLFNETAKKQMEELQALKVKLEMKEERVRFLEQQTLCNNQVNDLTTALKEMEQLLEM

What follows are molecules tested against SARS-CoV-2 ORF9B with C-terminal Twin-Strep tag (SARS-CoV-2) (UniProt P0DTD2) (assay: co-IP).

Row | Molecule | binding
1 | HA-tagged SQSTM1 (from UniProt Q13501 1-440) | binds
2 | B1 | binds
3 | B2 | binds
4 | B3 | binds
5 | B4 | binds
